No constants are given. Whether binding was seen depends on the method and setting. Some entries that bind do so weakly or less than the wild type.
Assays:
Assay in all cases: flow cytometry, transfected HEK293FF
[1] = target: membrane LIGHT A190S (human) (UniProt O43557)
[2] = target: membrane LIGHT G188A (human) (UniProt O43557)
[3] = target: membrane LIGHT R189A (human) (UniProt O43557)
[4] = target: membrane LIGHT R195A (human) (UniProt O43557)
[5] = target: membrane LIGHT S192A (human) (UniProt O43557)
[6] = target: membrane LIGHT S193A (human) (UniProt O43557)
[7] = target: membrane LIGHT S194A (human) (UniProt O43557)
[8] = target: membrane LIGHT T191A (human) (UniProt O43557)
[9] = target: membrane LIGHT V196A (human) (UniProt O43557)
[10] = target: membrane LIGHT W197A (human) (UniProt O43557)
[11] = target: membrane LIGHT W198A (human) (UniProt O43557)

By UniProt entry, the sequences of proteins in these tests, tags left out. Where a name states a change or a piece, a line headed by the entry shows the natural chain unless it says otherwise. Residues count along the entry.
UniProt O43557: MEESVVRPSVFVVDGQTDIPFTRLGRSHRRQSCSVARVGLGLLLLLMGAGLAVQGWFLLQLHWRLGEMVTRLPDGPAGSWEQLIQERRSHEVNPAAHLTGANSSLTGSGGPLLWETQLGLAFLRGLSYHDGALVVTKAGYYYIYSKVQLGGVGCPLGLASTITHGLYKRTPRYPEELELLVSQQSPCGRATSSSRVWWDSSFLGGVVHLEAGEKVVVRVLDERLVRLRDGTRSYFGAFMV
UniProt P36941, residues 28-227: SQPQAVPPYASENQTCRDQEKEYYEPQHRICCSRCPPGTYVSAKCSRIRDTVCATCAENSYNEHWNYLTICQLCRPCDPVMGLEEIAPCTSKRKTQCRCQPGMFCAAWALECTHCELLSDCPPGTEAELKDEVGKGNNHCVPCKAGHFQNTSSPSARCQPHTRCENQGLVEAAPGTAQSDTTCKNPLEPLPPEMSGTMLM

binding [1]: binds
binding [2]: binds
binding [3]: binds
binding [4]: binds
binding [5]: binds
binding [6]: binds
binding [7]: binds
binding [8]: binds
binding [9]: binds
binding [10]: binds
binding [11]: binds
Substance: LTβR-Fc (from UniProt P36941 28-227) (Fc fusion)

Reference: patent US20230035798A1
